# Library screen at single concentrations

Source: ChEMBL document CHEMBL3988442, “University of Dundee, Small-Polar-MMV Screening Library” (2021).

Values are the deposited “Percent Effect”, in %. The controls that fix the scale are not given in the record; negative values are as filed. Compounds were drawn at random from those tested, without regard to their results.

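Whole-parasite assay of Trypanosoma brucei over 72 hours; the read-out is not stated. Concentration: 30 µM. Direction is inferred from retests: higher values go with stronger inhibition. Values scatter widely below zero; nearly all retest evidence comes from the higher of the two concentrations used. About 64,000 compounds were tested under these conditions; 1.5% (about 940) showed 50% or more at least once.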

* N#CC1(C(=O)N2CCCN(c3nccs3)CC2)CCCC1 | 10.98%
* [H][C@]12CC[C@]([H])(CN(C(=O)Nc3ccccc3C(C)C)C1)N(C)C2=O | -39.75%
* Cc1cc(C)n(CC2CCCCN2CCCS(N)(=O)=O)n1 (stereo unspecified) | -29.08%
* Cc1cc(F)cc(S(=O)(=O)NCCCN2CCC(O)CC2)c1 | -21.1%
* COc1ccc(C(=O)N2CCC(Oc3cccc(C)c3)(C(=O)O)CC2)o1 | -24.59%
* NC(=O)c1ccc(N2CCCCC2)c(NC(=O)c2cc(Br)ccc2Cl)c1 | -26.35%
* Cc1cnccc1CN(C)C(=O)c1cccc(CCC(C)(C)O)c1 | -16.91%
* O=C(CN1CC(n2cccn2)C1)NCCC1=CCCCC1 | -5.397%
* CNc1cc(C2CCCN(Cc3ccccc3OCC(=O)O)C2)ccn1 (stereo unspecified) | 14.37%
* Cc1cccc(C(=O)NCC2CCS(=O)(=O)C2)n1 (stereo unspecified) | 16.92%
* O=C1CC2(CCCC2)CC(=O)N1Cc1ncccn1 | -8.848%
* CN(CC(=O)Nc1cnn(-c2ccccc2S(C)(=O)=O)c1)C1CC1 | -18.27%
* Cn1cc(C2CCCN2C(=O)c2cnc(-c3ccccn3)s2)cn1 (stereo unspecified) | -22.97%
* Cc1nc(CN(C)c2nccc(N(C)C)n2)cs1 | -32.92%
* O=C(NC1CCN(C2CC2)CC1)c1cc(Cl)ccc1-n1cnnn1 | -33.37%
* O=C(O)C(F)(F)F.O=c1cccnn1CC1CN(CC2CCCC2)Cc2nccn2C1 (stereo unspecified) | -7.16%
* COc1nccnc1N1CCC(C(=O)O)(n2ccc(C(C)(C)C)n2)CC1 | -15.81%
* CN(C)C(=O)CN1CCCc2c(F)cc(Br)cc21 | -10.8%
* Fc1cnc(N2CC3(CCN(CC4CC4)C3)C2)nc1.O=C(O)C(F)(F)F | -24.8%
* CC(C)c1nccn1C1CCCN(C(=O)c2ccc3c(c2)COC3)C1 (stereo unspecified) | 2.983%
* COCCN(C)[C@@H]1c2ccccc2C2(CCNCC2)[C@H]1O | -31.26%
* CCn1cc(C(=O)n2nc(C)cc2C)c(S(=O)(=O)N2CCCCC2)n1 | 6.775%
* Cc1nc(NC(=O)N(C)Cc2ccoc2)nn1C | -0.1404%
* O=S(=O)(c1c(F)cccc1F)N1CCC(Cn2cccn2)CC1 | -16.43%
* O=C(C1CCOC1)N1CCC(OCc2ccccc2)CC1 (stereo unspecified) | -0.5125%
* CCNC(=O)N1CCC(Nc2nccc(NCC)n2)CC1 | 2.701%
* O=C(O)COc1ccc(Cl)cc1CN1CCC2(CCOCC2)CC1 | -41.78%
* O=C(NC[C@H]1OC[C@@H](NCc2ccccn2)[C@@H]1O)N1CCOCC1 | -1.303%
* Cc1nc(-c2ccsc2)ccc1C(=O)NCCN1CCOCC1 | 15.19%
* Cc1ccc(S(=O)(=O)Nc2ccc(=O)n(C)c2)cc1 | -6.229%
* CCc1ccc(C(=O)N2CCN(CCO)CC2)o1 | -10.01%
* CN1CCc2[nH]cnc2C12CCN(C(=O)CCc1cccs1)CC2 | -34.79%
* CCC(Oc1ccc(N(C)S(C)(=O)=O)cc1)C(=O)NC (stereo unspecified) | -10.65%
* COc1cc(C(=O)N(Cc2cnn(C)c2)C(C)C)ccc1OCC(N)=O | -31.25%
* CC(=O)c1ccc(C(=O)N2CCCCC2c2nc[nH]n2)cc1 (stereo unspecified) | -48.84%
* CCCC(NC(=O)c1ccc(C)cc1C)c1nnn[nH]1 (stereo unspecified) | 16.46%
* O=C(N1CCN(CCO)CC1)C1(O)Cc2ccccc2C1 | 10.12%
* Cc1cccc(NCCNc2ccc(C#N)cn2)n1 | -2.532%
* COc1ccc(OCC(=O)NS(=O)(=O)c2ccc(Cl)s2)cc1 | -18.19%
* CC(C)c1nnsc1CNC(=O)C1CCN(C(=O)C2CC2)CC1 | -15.68%
* CCc1c(C)sc(NC(=O)CN2CCN(CC)CC2)c1C(=O)OC | 34.96%
* c1cnn(Cc2ccc(CN3CCC4(CCCNC4)C3)cc2)c1 (stereo unspecified) | -31.43%
* O=C(c1ncc[nH]1)N1CCC(n2cc(-c3cccc(Cl)c3)nn2)CC1 | -25.24%
* O=C(C1CCC1)N1CCn2c(COc3ncccn3)nnc2C1 | -34.18%
* Cc1ccc(C(=O)N2CCOC(c3nc(C(C)(C)C)n[nH]3)C2)c(=O)[nH]1 (stereo unspecified) | -39.51%
* NC(=O)N1CCCC(C(=O)NCCOc2ccc3c(c2)OCO3)C1 (stereo unspecified) | -14.19%
* COc1ccc(N2CCOCC3(CCCN(c4cnccn4)C3)C2)cc1 (stereo unspecified) | -13.61%
* [H][C@@]12COC[C@]1([H])[C@@H](OCC1CCOCC1)CN2C(=O)c1cccn1C | 15.1%
* Cl.Cn1nc(C2CCN(C(=O)Cc3ccsc3)CC2)c2cccnc21 | 16.05%
* COc1ccc(-c2nc(CSC3CCCCNC3=O)co2)cc1 (stereo unspecified) | -12.81%
* O=C(NCc1ccnc(C2CCCOC2)n1)c1cccs1 (stereo unspecified) | -2.313%

The first 5 entries again:

| compound | effect |
|---|---|
| `N#CC1(C(=O)N2CCCN(c3nccs3)CC2)CCCC1` | 10.98 |
| `[H][C@]12CC[C@]([H])(CN(C(=O)Nc3ccccc3C(C)C)C1)N(C)C2=O` | -39.75 |
| `Cc1cc(C)n(CC2CCCCN2CCCS(N)(=O)=O)n1` (stereo unspecified) | -29.08 |
| `Cc1cc(F)cc(S(=O)(=O)NCCCN2CCC(O)CC2)c1` | -21.1 |
| `COc1ccc(C(=O)N2CCC(Oc3cccc(C)c3)(C(=O)O)CC2)o1` | -24.59 |